# Primary screen of a compound library

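Viability assay of Plasmodium falciparum sporozoites; the read-out is not stated. The concentration is filed as 10 mM, unlikely as a test dose, so the dose is not known. Higher reads as lower viability (inferred: compounds with an IC50 in retests scored well above the rest). Strong results were mostly tested again. Size under these conditions: about 34,000 compounds, about 280 of them at 50% or above in at least one test.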

Results are given as percent effect. The controls that fix the scale are not given in the record; negative values are as filed. Compounds were drawn at random from those tested, without regard to their results. Two or more numbers in one place are separate tests of the same structure; such repeats can differ widely.

For COc1ccc(-c2cnc(N)nc2C2CCCNC2)cc1.Cl (stereo not drawn) the result was -4.502%. COc1cc(CN(C)C(=O)NCc2ccccn2)ccc1SC read 1.538%. With Cc1cnn(C2CN(Cc3nc(-c4cccnc4)no3)C2)c1 the screen gave 15.88%. For CC(=O)Nc1nc(C(=O)NC(C)c2ccc(F)c(F)c2)cs1 (stereo not drawn) the result was -14.94%.

With CC(CN1CCOCC1)NCc1nncn1C1CCCCC1 (stereo not drawn) the screen gave -13.44%. With CCc1nc(C2CCCN2C(=O)c2nc(C)n3ccccc23)no1 (stereo not drawn) the screen gave -5.392%. With Cc1cc2ncn(C(=O)N3CCOCC3)c2cc1C the screen gave 2.906%. Cc1ccc(N2CCCC3(COCCN(c4nccs4)C3)C2)nn1.O=C(O)C(F)(F)F.O=C(O)C(F)(F)F (stereo not drawn) read -7.016%.

For N#Cc1cc(F)ccc1Cn1cncn1 the result was 2.305%. With CCOC(=O)NC(CNC(=O)c1ncccn1)CC(C)C (stereo not drawn) the screen gave -4.844%. For CS(=O)(=O)CCCC(=O)N1CCN(CC2CC2)c2ccccc21 the result was 0.8705%. Result for CC/N=c1\nc(NCC)nc2n1C(O)(Nc1cc(C)ccc1C)CS2 (stereo not drawn) was -7.651% & -13.62%.

Result for c1csc(-c2noc(CCCN3CCCC3Cn3cncn3)n2)c1 (stereo not drawn) was 20.2% & 55.38% & 9.196%. Result for COCCCNC(=O)NCc1cccn1Cc1ccccc1C was -2.452%. CNC(=O)C1CCCN(C(=O)C2CCC2)C1 (stereo not drawn) read 0.8705%. Fc1ccccc1CN1CCC[C@@H](Cn2nnc(-c3cccs3)n2)C1 gave 6.352%.

For COc1cccc(Cn2ncnc2CCSC)c1 the result was -14.2% & -15.97%. CN(C)c1nccc(NCc2cc(-c3cccs3)n[nH]2)n1 read -3.472%. Result for COc1cccc(C(=O)N2CCc3nc(C4CCCN4)ncc3C2)c1.Cl (stereo not drawn) was 4.838%. Result for CN1CCC2(CC1)CN(CC1CC1)CC21CCNC1=O.O=C(O)C(F)(F)F.O=C(O)C(F)(F)F (stereo not drawn) was -11.29%.

Result for Cc1c(C(=O)N2CC(Cc3nccc4ccn(C)c34)C2)cnn1C was -16.42% & -4.684% & -25.66%. CC1c2ncc(Cn3cccn3)n2CCN1S(C)(=O)=O.O=C(O)C(F)(F)F (stereo not drawn) read 9.789%. COc1c(CNCc2ccc3c(c2)OCO3)c(C(C)C)nn1C gave 7.092%. c1cnc(-c2nc(CN3CCOC(Cn4cncn4)C3)cs2)nc1 (stereo not drawn) gave 18.4% & 11.51% & 47.97%.

CCc1noc(CCC(=O)N[C@@H]2CC[C@@H](n3ccnc3C)[C@@H]2O)n1 gave 20.29%. Result for CCN(CC)c1ccc(C(=O)N2CCC(c3nc(C)no3)CC2)cn1 was 13.58%. CN1CCN(Cc2cnc3n2CCN(CCc2ccccc2)C3)CC1.O=C(O)C(F)(F)F.O=C(O)C(F)(F)F.O=C(O)C(F)(F)F read 6.893%. For COc1c(CNCc2ccccc2Cn2cncn2)c(C)nn1C the result was -13.78%.

With O=C(O)C(F)(F)F.O=C(O)C(F)(F)F.[H][C@@]12COC[C@]1(CNC(=O)c1ccsc1)CN(Cc1cccnc1)C2 the screen gave -4.38%. For Cn1nc2c(cc1=O)CN(Cc1nc(-c3ccco3)no1)CC2 the result was 1.052%. CCNC(=O)C(C)NC(=O)c1cnc(-c2ccc(C)cc2C)s1 (stereo not drawn) gave 5.538%. Cc1nnc(SCC(=O)N2CCC3(CC2)c2ccccc2CC3O)o1 (stereo not drawn) gave 1.091%.

With O=C(O)c1ccccc1-c1cnc(Cn2c(=O)cc[nH]c2=O)s1 the screen gave -0.8395%. CN(C)c1ncccc1CNS(=O)(=O)c1cc(F)cc(F)c1 gave 3.853%. CN1CCCN(C(=O)NCc2csc(Br)c2)CC1 read -4.261%. CCc1nc(CN(Cc2cccs2)CC2CCCO2)no1 (stereo not drawn) read -14.32%.

Result for CC(=O)Nc1cccc(OCCNC(=O)N(C)Cc2ccco2)c1 was -11.84%. Result for CCN1CCN(C2CCN(Cc3nc(-c4ccoc4)no3)CC2)C1=O was 0%. O=C(O)C(F)(F)F.O=C(O)C(F)(F)F.c1ccc(OCc2nnc3n2CCN(CC2CC2)C3)nc1 read -8.759%. Result for [H][C@@]12CN(C(=O)NC(C)C)C[C@@]1([H])N(CC(C)C)C(=O)CO2 was 8.278% & 1.028%.

O=C1CCC(c2nc(C3CCNCC3)no2)N1 (stereo not drawn) read 2.473%. N#CC1COCCN1S(=O)(=O)c1ccc2c(c1)CCC2 (stereo not drawn) read -1.207%.

3 of the entries, repeated:

- COc1c(CNCc2ccccc2Cn2cncn2)c(C)nn1C | -13.78%
- Cc1cc2ncn(C(=O)N3CCOCC3)c2cc1C | 2.906%
- CC/N=c1\nc(NCC)nc2n1C(O)(Nc1cc(C)ccc1C)CS2 (stereo not drawn) | -7.651% & -13.62%

Measurements from “University of Dundee, Small-Polar-MMV Screening Library” (2021), ChEMBL document CHEMBL3988442.